Reference: PMC11324313
No constants are given. Whether binding was seen depends on the method and setting. For part of these data: In cells and extracts the contact can be indirect. Some binding calls cover weakened binding; strength is not graded here. For part of these data: Sequences can lack the tags named with a protein.

Sequences of proteins named here, by UniProt entry; tags and fusion partners are left off. Residues count along the entry.
UniProt Q9Y4K0, residues 26-774: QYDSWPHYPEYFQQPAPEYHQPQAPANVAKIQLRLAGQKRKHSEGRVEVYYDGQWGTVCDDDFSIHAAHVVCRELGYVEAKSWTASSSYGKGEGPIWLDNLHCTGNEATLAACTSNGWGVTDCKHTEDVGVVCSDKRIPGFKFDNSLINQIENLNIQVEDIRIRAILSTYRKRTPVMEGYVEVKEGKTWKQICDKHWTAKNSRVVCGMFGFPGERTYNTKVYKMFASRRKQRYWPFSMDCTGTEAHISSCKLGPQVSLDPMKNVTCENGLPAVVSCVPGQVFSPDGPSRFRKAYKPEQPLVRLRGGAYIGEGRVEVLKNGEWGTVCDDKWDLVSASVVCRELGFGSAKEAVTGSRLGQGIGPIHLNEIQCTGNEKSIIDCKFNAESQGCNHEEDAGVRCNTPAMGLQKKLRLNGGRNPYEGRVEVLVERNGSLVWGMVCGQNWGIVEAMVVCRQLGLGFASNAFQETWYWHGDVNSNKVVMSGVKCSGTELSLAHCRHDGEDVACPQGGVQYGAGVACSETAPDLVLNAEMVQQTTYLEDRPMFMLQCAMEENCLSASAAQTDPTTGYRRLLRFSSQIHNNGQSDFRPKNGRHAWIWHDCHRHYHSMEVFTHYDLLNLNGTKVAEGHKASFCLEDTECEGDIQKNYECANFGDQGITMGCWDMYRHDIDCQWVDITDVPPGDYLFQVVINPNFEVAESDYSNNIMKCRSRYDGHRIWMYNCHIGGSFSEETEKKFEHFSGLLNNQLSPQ

Assays:
[1] = target: T1, Biotin-conjugated PEAR1-ECD domain peptide EMI (human) (UniProt Q5VY43); assay: ELISA; biotin-conjugated PEAR1-ECD domain peptides (EMI and EGF-like 1 through EGF-like 15; 10 μg/mL) captured on streptavidin-coated plates; samples 1 hour at 37°C; HRP-conjugated secondary antibodies, TMB, OD 450 nm
T1 sequence (peptide, biotin): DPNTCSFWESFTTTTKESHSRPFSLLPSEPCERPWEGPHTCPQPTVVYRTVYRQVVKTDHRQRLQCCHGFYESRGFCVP

PEAR1-ECD–His (human) [2] = target: T2, PEAR1-ECD–His (human) (UniProt Q5VY43); assay: pull-down; concentrated serum-free supernatant of MDA-MB-231 cells incubated with 15 μg exogenous PEAR1-ECD–His; Dynabeads His-tag; eluate silver stained, differential bands analysed by MS and Western blotting; only the target purified
T2 sequence: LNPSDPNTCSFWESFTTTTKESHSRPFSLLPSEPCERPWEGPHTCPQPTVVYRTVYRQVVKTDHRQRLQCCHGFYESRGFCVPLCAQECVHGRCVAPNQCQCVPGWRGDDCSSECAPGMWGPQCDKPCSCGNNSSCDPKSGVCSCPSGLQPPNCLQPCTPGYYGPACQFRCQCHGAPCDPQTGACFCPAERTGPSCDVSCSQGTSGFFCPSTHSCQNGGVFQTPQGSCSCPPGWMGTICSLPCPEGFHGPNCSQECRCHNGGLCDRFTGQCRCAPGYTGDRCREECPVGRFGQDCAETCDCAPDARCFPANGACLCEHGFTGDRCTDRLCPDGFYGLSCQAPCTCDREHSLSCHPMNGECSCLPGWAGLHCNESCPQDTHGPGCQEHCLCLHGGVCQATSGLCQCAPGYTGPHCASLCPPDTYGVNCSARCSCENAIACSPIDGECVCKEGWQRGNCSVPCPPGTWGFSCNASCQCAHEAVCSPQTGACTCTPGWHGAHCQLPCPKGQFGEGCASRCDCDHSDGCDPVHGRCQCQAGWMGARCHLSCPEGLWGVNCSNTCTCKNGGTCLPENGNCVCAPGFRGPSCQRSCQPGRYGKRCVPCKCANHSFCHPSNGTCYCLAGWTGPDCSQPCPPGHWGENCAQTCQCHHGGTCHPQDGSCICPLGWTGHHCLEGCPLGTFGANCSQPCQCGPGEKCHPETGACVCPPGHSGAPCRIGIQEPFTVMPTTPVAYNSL

PEAR1-ECD–His (human) [3] = target: T2, PEAR1-ECD–His (human); assay: pull-down; PEAR1-ECD–His with the supernatant of MDA-MB-231 cells, with or without 20 μg/mL simtuzumab; only the target purified

| binding [1] | binding (PEAR1-ECD–His (human) [2]) | binding (PEAR1-ECD–His (human) [3]) | Substance |
| --- | --- | --- | --- |
| binds | – | – | LOXL2 protein, recombinant (full-length LOXL2 protein) (from UniProt Q9Y4K0 26-774) (ligand) |
| – | binds | binds | Lysyl oxidase–like protein 2 (LOXL2), secreted by MDA-MB-231 cells (from UniProt Q9Y4K0 26-774) (ligand) |
